{"source": "patent US7335352B1", "about": "“Method of identifying agents that inhibit quorum sensing activity of gamma-proteobacteria” (priority 2003, dated 2008)", "key": {"P. aeruginosa PAO1 [1]": {"test_system": "P. aeruginosa PAO1", "test": "LC/APCI-MS analysis of culture fluid of P. aeruginosa PAO1 growing on 3OC12HSL", "format": "cell-based, Pseudomonas aeruginosa"}, "P. aeruginosa PAO1 [2]": {"test_system": "P. aeruginosa PAO1", "test": "Accumulation of endogenous 3OC12HSL by P. aeruginosa PAO1 cultures in LB", "format": "cell-based, Pseudomonas aeruginosa", "conditions": "LB at 30° C."}}}
{"smiles": "CCCCCCCCCC(=O)CC(=O)N[C@H]1CCOC1=O", "note": "[3OC12-L-HSL, N-3-oxododecanoyl-L-homoserine lactone]", "values": [{"measurement": "Remaining substrate concentration", "setting": "P. aeruginosa PAO1 [1]; by early stationary phase, MES 5.5 medium, 1 mM 3OC12HSL sole energy source", "value": "less than 125 nM"}, {"measurement": "Accumulated endogenous 3OC12HSL", "setting": "P. aeruginosa PAO1 [2]; PAO1 constitutively expressing PvdQ", "value": "did not accumulate any of this quorum signal above the threshold of detection"}, {"measurement": "Accumulated endogenous 3OC12HSL", "setting": "P. aeruginosa PAO1 [2]; wild-type PAO1", "value": "> 6", "unit": "µM"}]}
{"smiles": "CCCCCCCCCC(=O)CC(=O)NC(CCO)C(=O)O", "note": "(centres unmarked) [3OC12-homoserine]", "values": [{"measurement": "Concentration relative to the initial AHL concentration", "setting": "P. aeruginosa PAO1 [1]; throughout growth on 1 mM 3OC12HSL", "value": "≤ 0.1", "unit": "%"}]}
{"smiles": "N[C@H]1CCOC1=O", "note": "[HSL, homoserine lactone]", "values": [{"measurement": "Maximum accumulated concentration", "setting": "P. aeruginosa PAO1 [1]; just before the onset of stationary phase, growth on 3OC12HSL", "value": "ca. 500 μM"}]}
